Measurements: PubChem BioAssay AID1347075 (National Center for Advancing Translational Sciences (NCATS), 2019)
The campaign covered roughly 400,000 compounds. About 5,500 (1.4%) were called active. Inconclusive results, whose numbers are uncertain, are shown with a selection of clear calls. Calls come from the whole dose curve; as a rule, active = well fitted cell-killing curve with a large enough effect; inconclusive = small, poorly fitted or top-dose-only effect, or effect the other way; inactive = flat fitted curve, though single readings scatter. Potencies of inconclusive entries are doubtful fits and often do not repeat.

test: qHTS assay for MDR1-selective chemotherapeutics: Primary screen using the parental adenocarcinoma cell KB-3-1; conditions: KB-3-1 viability, CellTiter-Glo ATP luminescence, 72 h; activity change, negative = cytotoxic: at 46.1 µM (top of the series); note: nearly all actives have a fitted effect of over 60% in size
Method in brief: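 Using CellTiter-Glo luminescence, growth of non-resistant KB-3-1 adenocarcinoma cells is assessed 72 h after pin-tool compound addition at 37 °C. Normalized responses across the concentration series yield fitted curves.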
% is set by controls: 0 for no effect and ±100 for the full control effect; potency is the fitted concentration of half-maximal effect.

Row | SMILES | Potency | activity change, negative = cytotoxic
1 | O=C1C=CC2(O[C@H](c3ccccc3)[C@@H](c3ccccc3)O2)[C@H](Sc2ccccc2O)C1 | active: 3.26 µM | –
2 | Cc1cc(NC(=O)COC(=O)C2CCN(S(=O)(=O)c3ccc(Cl)cc3)CC2)no1 | – | inactive: -2.97%
3 | C=CCN(C(=O)Cc1cccs1)c1nc(-c2ccc(S(C)(=O)=O)cc2)cs1 | inconclusive: 29.1 µM [cytotoxic, single point] | –
4 | Cc1cc(C)c(S(=O)(=O)Nc2cc(SCC(=O)O)c(O)c3ccccc23)cc1C | inconclusive: 29.1 µM [cytotoxic, single point] | –
5 | Cc1ccc(NC(=O)c2cc(S(=O)(=O)N3CCCCC3)c[nH]2)cc1N(C)C | – | inactive: 9.11%
6 | O=C(Nc1ccccc1C(=O)Nc1ccccn1)c1ccc([N+](=O)[O-])cc1 | – | inactive: -0.203%
7 | O=C(C[C@H]1CC[C@@H]2[C@H](COC[C@H](O)CN2C(=O)c2cnccn2)O1)NCc1ccc(Cl)cc1 | – | inactive: 12.1%
8 | CN(CC(=O)Nc1ccccc1N1CCOCC1)S(=O)(=O)c1ccc(Cl)cc1 | inconclusive: 29.1 µM [cytotoxic, single point] | –
9 | O=C1N[C@@H](Cc2ccccc2)COC(=O)[C@H](Cc2ccc(F)cc2)CC/C=C/C[C@@H]1CC(=O)N(CCO)Cc1ccccc1 | inconclusive: 29.1 µM [cytotoxic, single point] | –
10 | NC(c1csc(Nc2cc(Oc3ccccc3)ncn2)n1)c1ccccc1Cl (stereo not drawn) | inconclusive: 29.1 µM [cytotoxic, single point] | –
11 | COc1ccc(N2CCN(C(c3cccs3)C(C)NS(=O)(=O)c3ccccc3)CC2)cc1 (stereo not drawn) | active: 20.6 µM | –
12 | O=C(Nc1nc2ccccc2[nH]1)c1ccc(Cl)cc1 | inconclusive: 14.6 µM [cytotoxic, partial curve, poor fit] | –
13 | O=[N+]([O-])c1ccc(/C=N/n2c(CO)nc3ccccc32)s1 | inconclusive: 6.51 µM [cytotoxic, partial curve] | –
14 | COc1ccc(/C=C/c2ccccc2)cc1[C@H]1[C@H]2C=CC[C@@H](C)[C@@H]2C(=O)N1Cc1ccccc1 | inconclusive: 29.1 µM [cytotoxic, single point] | –
15 | S=C(NCCc1c[nH]c2ccccc12)NC1CCCCC1 | inconclusive: 29.1 µM [cytotoxic, single point] | –
16 | CC(C)C(NC(=O)OCc1ccccc1)C(=O)NC1CCCCC1 (stereo not drawn) | – | inconclusive: 0.872%
17 | COCCNC(=O)COc1ccccc1Cl | – | inactive: 14%
18 | O=S(=O)(c1ccc(F)cc1)N1CCN(c2nc(-c3ccccc3)nc3ccccc23)CC1 | inconclusive: 29.1 µM [cytotoxic, single point] | –
19 | Cc1cc(C)c2c(CC(=O)Nc3ccc(F)cc3)coc2c1 | – | inactive: -9.1%
20 | CCN1CCN(Cc2ccc(NC(=O)c3cc(NC(=O)c4nccnc4N)cc(OC)c3)cc2C(F)(F)F)CC1 | – | inactive: 14.8%
21 | C/C(=N\Nc1ccc(Cl)cc1)c1ccccn1 | – | inactive: 3.23%
22 | CN(C(=O)COC(=O)c1nc(Cl)c(Cl)c(Cl)c1Cl)C1CCS(=O)(=O)C1 (stereo not drawn) | inconclusive: 18.4 µM [cytotoxic, single point] | –
23 | CCOc1nc2c(c(=O)n(C)c(=O)n2C)n1Cc1ccccc1Cl | inconclusive: 20.6 µM [cytotoxic, single point] | –

Row | SMILES | Potency | activity change, negative = cytotoxic
24 | CCc1ccc(N(C(=O)c2ccoc2C)C(C(=O)NC2CCCC2)c2ccc(OC)cc2)cc1 (stereo not drawn) | – | inactive: 1.38%
25 | Cc1cc(N2C(=O)C3CC=CCC3C2=O)cc(C)c1Br (stereo not drawn) | – | inactive: 0.838%
26 | N=c1c2c(n(Cc3ccc(F)cc3)c3c1CCC3)CCCC2 | inconclusive: 1.3 µM [cytotoxic, full curve, poor fit] | –
27 | O=C(Nc1ccc(Br)cc1)C1C2C=CC3(O2)C1C(=O)N(CCN1CCOCC1)C3C(=O)NC1CCCCC1 (stereo not drawn) | – | inactive: -4.63%
28 | Cc1cc(C)cc(OCC(O)CN2CCC(CN3C(=O)c4cccc5cccc(c45)C3=O)CC2)c1 (stereo not drawn) | inconclusive: 29.1 µM [cytotoxic, single point] | –
29 | CC(C)(C)N1C(=O)[C@H]2[C@@H](c3ccc(Br)cc3)N3C(=O)N(c4cccc(Cl)c4)C(=O)[C@@]3(Cc3ccccc3)[C@H]2C1=O | inconclusive: 14.6 µM [cytotoxic, single point] | –
30 | COc1ccc(-c2csc(Nc3ccccn3)n2)cc1OC | inconclusive: 29.1 µM [cytotoxic, single point] | –
31 | COc1ccc2[nH]c3c(N4CCC(O)(c5cccc(C(F)(F)F)c5)CC4)ncnc3c2c1 | active: 13 µM | –
32 | C/C(=N/NS(C)(=O)=O)c1ccc2ccccc2c1 | inconclusive: 23.1 µM [cytotoxic, single point] | –
33 | CCc1ccc(NC(=O)CCCNC(=O)Cn2cnc3sc(C)c(C)c3c2=O)cc1 | inconclusive: 29.1 µM [cytotoxic, single point] | –
34 | CN(C)S(=O)(=O)c1ccc2oc(SCC(N)=O)nc2c1 | inconclusive: 29.1 µM [cytotoxic, single point] | –
35 | CCOC(=O)CSc1n[nH]c(NS(=O)(=O)c2ccccc2C(F)(F)F)n1 | – | inactive: -8.31%
36 | Cn1cccc1/C=C1\CC(C(C)(C)C)C/C(=C\c2cccn2C)C1=O (stereo not drawn) | inconclusive: 29.1 µM [cytotoxic, single point] | –
37 | COc1ccc(OC)c(S(=O)(=O)n2nc(C)cc2C)c1 | inconclusive: 32.6 µM [rising, single point] | –
38 | O=C(CN1CCSC1=NCc1ccccc1)c1ccccc1 | – | inactive: -6.23%
39 | CN(C)C(=O)c1cc(C(=O)c2ccccc2C(F)(F)F)c[nH]1 | inconclusive: 10.3 µM [cytotoxic, partial curve, poor fit] | –
40 | CCOc1ccc(-n2c(=O)c3sc4ccccc4c3n(Cc3cccc(C)c3)c2=O)cc1 | – | inactive: -3.48%
41 | CCN(CC)S(=O)(=O)c1ccc(N/N=C/c2cc(OC)c(OC)cc2OC)nc1 | – | inactive: 1.07%
42 | O=C(NC1(C(F)(F)F)C(=O)Nc2c1c(=O)[nH]c(=O)n2-c1ccc(F)cc1)c1ccccc1 (stereo not drawn) | – | inactive: 11.9%
43 | COc1ccc2cc(C(C)C(=O)Nc3cccc(S(=O)(=O)N(C)C)c3)ccc2c1 (stereo not drawn) | active: 20.6 µM | –
44 | Cc1cccc(N2CCN(C(=O)CCc3c(C)nc4c(c3C)c(=O)n(C)c(=O)n4C)CC2)c1C | – | inactive: -0.61%
45 | Cc1occc1C(=O)NNC(=S)NC(=O)COc1ccc(Cl)cc1Cl | inconclusive: 18.4 µM [cytotoxic, single point] | –
46 | COc1ccc([C@H]2C[C@@H](n3cc(-c4ccc(F)cc4)nn3)[C@H](O)CN2Cc2cccs2)cc1 | inconclusive: 29.1 µM [cytotoxic, single point] | –

An excerpt of these results, as a markdown table:

| Row | SMILES | Potency | activity change, negative = cytotoxic |
| --- | --- | --- | --- |
| 36 | Cn1cccc1/C=C1\CC(C(C)(C)C)C/C(=C\c2cccn2C)C1=O (stereo not drawn) | inconclusive: 29.1 µM [cytotoxic, single point] | – |
| 37 | COc1ccc(OC)c(S(=O)(=O)n2nc(C)cc2C)c1 | inconclusive: 32.6 µM [rising, single point] | – |
| 38 | O=C(CN1CCSC1=NCc1ccccc1)c1ccccc1 | – | inactive: -6.23% |

(listing goes on)

Row | SMILES | Potency | activity change, negative = cytotoxic
47 | COc1ccc(CNC(=O)C/C(C)=N/NC(=O)COc2ccc(C)cc2Br)cc1 | active: 5.8 µM | –
48 | COc1ccc(C(C)=O)cc1COC(=O)c1c(C)noc1C | inconclusive: 20.6 µM [cytotoxic, single point] | –
49 | COc1ccc(S(=O)(=O)/C(C#N)=C/Nc2ccccc2F)cc1 | – | inactive: 6.94%
50 | COc1ccc(-n2c(=O)cc(N3CCN(c4ccccc4OC)CC3)[nH]c2=O)cc1 | inconclusive: 18.4 µM [cytotoxic, single point] | –
51 | COc1cc(C2Sc3ccccc3NC3=C2C(=O)OC3)cc(OC)c1OC (stereo not drawn) | active: 23.1 µM | –
52 | C/C(=N\NC(=O)c1ccccc1)c1c(C)[nH]n(-c2ccccc2)c1=O | inconclusive: 20.6 µM [cytotoxic, single point] | –
53 | O=C(Nc1ncccc1O)c1ccc2c(c1)OCO2 | inconclusive: 29.1 µM [cytotoxic, single point] | –
54 | CC(C)C(=O)Nc1cccc(-c2nc3ncccc3o2)c1 | inconclusive: 10.3 µM [rising, partial curve, poor fit] | –
55 | Cc1nn(Cc2ccc(C(=O)NC(C)(C)C)o2)c(C)c1Br | inconclusive: 20.6 µM [cytotoxic, partial curve] | –
56 | O=c1c2cccnc2n(Cc2ccccc2F)c(=O)n1Cc1ccc(F)cc1 | inconclusive: 25.9 µM [cytotoxic, single point] | –
57 | O=C(CSc1ncnc2nc[nH]c12)Nc1nnc(SCc2ccc(Cl)c(Cl)c2)s1 | – | inactive: 1.67%
58 | O=C(Nc1cccc(NC(=O)c2cccs2)c1)c1ccc(Br)cc1 | inconclusive: 25.9 µM [cytotoxic, single point] | –
59 | COc1ccc(C)cc1NC(=O)Nc1ccc2c(c1)CCC2 | – | inactive: -3.09%
60 | Oc1ccc(/C=C/c2ccc3cccc(O)c3n2)cc1Br | inconclusive: 25.9 µM [cytotoxic, single point] | –
61 | O=C(CCn1c(=O)[nH]c2ccsc2c1=O)N1CCN(c2cccc(Cl)c2)CC1 | active: 20.6 µM | –
62 | CN1CCc2c(sc3c2c(=O)n(-c2ccccc2)c2nnc(SCc4ccc(Cl)cc4)n32)C1 | inconclusive: 29.1 µM [cytotoxic, single point] | –
63 | NNc1nc(-c2ccccc2)cc(-c2ccccc2)n1 | inconclusive: 16.4 µM [cytotoxic, partial curve, poor fit] | –
64 | Cc1nn(-c2ccccc2)c(Cl)c1C1C(C#N)=C(N)OC2=C1C(=O)CC(C)(C)C2 (stereo not drawn) | inconclusive: 29.1 µM [cytotoxic, single point] | –
65 | Cc1ccc(C)c(N2CCN(c3nccn4nc(-c5ccc(Br)cc5)cc34)CC2)c1 | inconclusive: 10.3 µM [cytotoxic, partial curve] | –
66 | C/C(CCc1oc2ccc(Cl)cc2c1-c1ccc(C)o1)=N\O | inconclusive: 18.4 µM [cytotoxic, single point] | –
67 | O=C(CSc1nc2ccccc2n1S(=O)(=O)c1cccc([N+](=O)[O-])c1)NCCc1ccccc1 | inconclusive: 25.9 µM [cytotoxic, single point] | –
68 | Cc1[nH]c2ccccc2c1C(O)CN1CCN(c2cccc(C(F)(F)F)c2)CC1 (stereo not drawn) | active: 14.6 µM | –
